Measurements published in PubChem BioAssay (NCATS).
The inconclusive results got no clear call from the source; some entries with a clear call stand among them for comparison. A potency beside an inconclusive call is a rough fit, not a confirmed value. Calls of active or inactive are those of the source. Calls follow the shape of the dose curve; as a rule, active = well fitted inhibition curve with a large enough effect; inconclusive = small, poorly fitted or top-dose-only effect, or effect the other way; inactive = no such curve, though single readings can be large or run the other way.
% is scaled to controls: 0 for no effect and ±100 for the full control effect; potency is read from the fitted curve at half-maximal effect.

Test: qHTS Assay for Inhibitors of Fructose-1,6-bisphosphate Aldolase from Giardia Lamblia: Giardia lamblia growth inhibition (AID 2785);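 also: trophozoites exposed to compound for 48 h at 37 °C; nearly all actives have a fitted effect of over 70% in size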
Settings: Giardia lamblia trophozoite growth inhibition; activity change, negative = inhibition: at 57.5 µM (top of the series)
Source text: NIH Chemical Genomics Center [NCGC]
NIH Molecular Libraries Probe Production centers Network [MLPCN]
Assay Provider: Osnat Herzberg, University of Maryland
The objective of this project is to obtain compounds that inhibit Giardia lamblia growth. G. lamblia is a human pathogen which afflicts impoverished nations; it is the most common cause of outbreaks of diarrhea in the United States. During the course of our study of potential drug targets in Giardia, we have identified the Class II (Zn2+ functions in electrophilic catalysis) fructose-1,6-bisphosphate aldolase (FBPA) as an excellent candidate for drug targeting. FBPA is a key glycolytic pathway enzyme, essential for G. lamblia survival. The human FBPA belongs to the Class I aldolases, which have a different substrate binding site structure and a radically different catalytic mechanism (employing a lysine-Schiff base intermediate). Therefore, affinity-based or mechanism-based inhibitors of the Giardia FBPA are expected not to interfere with the catalytic function of the human FBPA.
A glyceraldehyde-3-phosphate dehydrogenase/triose phosphate isomerase/NAD/arsenate coupled assay was adapted to the 1536-well HTP format for use in the primary screen. This was done by coupling it to a diaphorase/resazurin/resorufin reaction that can be monitored by fluorescence (excitation, 544 nm; emission, 590 nm). Compounds identified in this screen will be further evaluated by coupling the glycerol-3-phosphate/triose phosphate isomerase/NADH assay to a phenazine methosulfate/tetranitroblue tetrazolium color reaction. False positives due to the dehydrogenases and diaphorase inhibition will be eliminated, and selectivity assay will triage inhibitors of mammalian triose phosphate isomerase and the Class I FBPA. G. lamblia FBPA inhibitors identified by the in vitro analyses will be examined for growth inhibition of Giardia trophozoites, and for cytotoxicity in human cells.
This assay addresses whether hits in the primary screen can inhibit growth of giardia lamblia trophozoites.
Trophozoites of the G. lamblia isolate WB (33) were grown at pH 7.0 in modified TYI-S-33 medium. Detachment of trophozoites for preparation of inocula was achieved by chilling the cultures on ice for 20 min.
2uL/well media was dispensed per well into 1536-well white solid-bottom plates using a Multidrop Combi dispenser (Thermo Scientific). Subsequently, 23 nL/well compound solutions or DMSO controls were dispensed to the assay plates containing media via a pintool workstation (Kalypsys, San Diego) to avoid the potential contamination to the compound source plates. Unless otherwise noted, Giardia trophozoids suspended in media were dispensed as 100 cells/well in 4uL volumes. The plates were covered with plastic low-evaporation lids, individually sealed in Type A Bio-Bags and incubated at 37C for 48 hours. Following incubation, 4uL/well of ATPlite reagent was dispensed with a Multidrop Combi dispenser. The assay plates were briefly centrifuged at 1000 RPM and luminescence signal was detected on a ViewLux plate reader (PerkinElmer) after 20 min incubation at room temperature.
Keywords: Fructose-bisphosphate aldolase, FBPA , Giardia lamblia , Giardia, HTS, Inhibitors
With `O=C(Nc1nccs1)c1ccccn1` the Potency was inconclusive: 63.1 µM [inhibitor, single point]. With `Cc1c(C(=O)O)c(C(=O)O)nc2ccc(N3CCOCC3)cc12` the Potency was “inactive”. In the case of `S=C(Nc1ccccc1)Nn1cnnc1`, the activity change, negative = inhibition is reported as inconclusive: 50.2% [activator]. For `Fc1ccc(CN2CCN(C(c3ccccc3)c3ccccc3)CC2)cc1`, the Potency was inconclusive: 31.6 µM [inhibitor, single point]. With `COc1cc(/C=N/NC2=NS(=O)(=O)c3ccccc32)ccc1OC(C)=O` the Potency was “inactive”. For `c1ccc(-c2cccc(-c3ccccn3)n2)nc1`, the Potency was inconclusive: 50.1 µM [inhibitor, partial curve, poor fit]. With `COc1ccc(CCN(Cc2ccccn2)C(=S)Nc2cccc(SC)c2)cc1OC` the Potency was “inactive”. For `COc1ccc(S(=O)(=O)NNC(N)=S)cc1`, the Potency was “inactive”. For `C=C(C)CNC(=S)N/N=C/c1ccccc1OCC(=O)O`, the Potency was “inactive”. With `Nc1cccc2[nH]c(C(F)(F)F)nc12` the Potency was “inactive”. For `CC(C)(C)c1cc(C(=O)N/N=C/c2ccccn2)n[nH]1`, the Potency was inconclusive: 2.82 µM [inhibitor, single point]. In the case of `Cc1ccc(S(=O)(=O)N2CCN(C(=O)CSc3nnc(C)c(=O)[nH]3)CC2)cc1`, the Potency is reported as inconclusive: 7.94 µM [inhibitor, single point]. For `CCN(CC(=O)Nc1cccc(OC)c1)CC(=O)Nc1ccc(C)cc1Cl`, the activity change, negative = inhibition was inactive: 17% [at 10.4 µM]. In the case of `COc1cc(/C=C2\SC(c3ccc(C)cc3)=NC2=O)cc(OC)c1O`, the Potency is reported as inconclusive: 79.4 µM [inhibitor, single point]. In the case of `O=C(CNCc1ccccn1)Nc1cc(C(F)(F)F)ccc1N1CCOCC1`, the Potency is reported as inconclusive: 100 µM [inhibitor, partial curve, poor fit]. In the case of `Cc1nnc(SCC2=C(C(=O)O)N3C(=O)C(NC(=O)c4cc(F)c(F)cc4Cl)C3SC2)s1` (stereo not given), the Potency is reported as inconclusive: 56.2 µM [inhibitor, single point]. For `CC1(C)CC(=O)C(/C=N/n2cnc3ccccc3c2=O)=C(O)C1`, the Potency was “inactive”. For `CCCCOc1c(Br)cc(CNCCCN2CCOCC2)cc1OC`, the Potency was inconclusive: 112 µM [inhibitor, single point]. With `COc1ccc(N2C(=O)CC(NNc3ncc(Cl)cc3Cl)C2=O)cc1` (stereo not given) the activity change, negative = inhibition was inactive: -1.11% [at 10.4 µM]. In the case of `COc1cc(Cl)ccc1NC(=S)N(CCN1CCOCC1)C1CCN(C(C)=O)CC1`, the activity change, negative = inhibition is reported as inactive: -7.33% [at 10.4 µM]. In the case of `CCOc1ccc(CN(C)CC(=O)Nc2cccc(S(=O)(=O)N(C)c3ccccc3)c2)cc1`, the Potency is reported as inconclusive: 20 µM [inhibitor, partial curve, poor fit]. With `COCc1cc(=O)[nH]c(=S)[nH]1` the activity change, negative = inhibition was inconclusive: 74.8% [activator]. With `CCOC(=O)C1CCN(Cc2ccccn2)CC1` the Potency was inconclusive: 3.98 µM [inhibitor, single point]. For `COc1ccc(Br)cc1CN1CCN(Cc2c[nH]c3ccccc23)CC1`, the Potency was active: 15.8 µM. In the case of `O=[N+]([O-])c1ccc(O)c(/C=N/Nc2ccccn2)c1`, the Potency is reported as inconclusive: 63.1 µM [inhibitor, single point]. With `O=C(NC(=S)Nn1cnnc1)c1ccccc1Br` the Potency was inconclusive: 8.91 µM [inhibitor, single point]. With `COc1ccc(CN2CCN(CCCCOc3ccc(Cl)cc3)CC2)c(OC)c1OC` the Potency was “inactive”. In the case of `O=C(Nc1sc2c(c1C(=O)O)CCC2)c1ccc(F)cc1`, the Potency is reported as inconclusive: 89.1 µM [inhibitor, partial curve]. In the case of `CC(=O)NC(c1ccccc1)c1cc([N+](=O)[O-])c2cccnc2c1O` (stereo not given), the Potency is reported as active: 17.8 µM. In the case of `Cc1cc(NC(=O)c2sccc2C)n(-c2nc3ccccc3[nH]2)n1`, the Potency is reported as inconclusive: 44.7 µM [inhibitor, single point]. For `N#Cc1ccccc1S(=O)(=O)N1CCN(CC(O)COc2ccccc2F)CC1` (stereo not given), the Potency was inconclusive: 8.91 µM [inhibitor, single point]. In the case of `O=C(NC(=S)Nc1ncccn1)c1ccccc1Cl`, the Potency is reported as inconclusive: 44.7 µM [inhibitor, partial curve]. With `CC(=O)N1CCN(CC(O)COc2ccc(Br)cc2)CC1` (stereo not given) the Potency was inconclusive: 89.1 µM [inhibitor, single point]. With `c1ccc(-c2ccccc2OCCOCCN2CCNCC2)cc1` the activity change, negative = inhibition was inconclusive: 112% [activator]. For `O=C(N/N=C/c1ccccn1)c1ccco1`, the Potency was “inactive”. For `O=C1CN(C(=S)NC(=O)c2ccccc2[N+](=O)[O-])CCN1`, the Potency was inconclusive: 44.7 µM [inhibitor, single point]. For `CS(=O)(=O)c1ccc2nc(NC(=O)CN3CCOCC3)sc2c1`, the Potency was inconclusive: 8.91 µM [inhibitor, partial curve]. For `Cc1ccc(N=Nc2c(O)ccc3n[nH]nc23)cc1`, the Potency was inconclusive: 14.1 µM [inhibitor, partial curve, poor fit]. In the case of `CN(C)CCOc1ccc(Cl)cc1C(C)(C)C`, the activity change, negative = inhibition is reported as inactive: -6.56% [at 10.4 µM]. In the case of `c1ccc2[nH]c(SN3CCOCC3)nc2c1`, the Potency is reported as inconclusive: 44.7 µM [inhibitor, partial curve, poor fit].
